# Results are given in words; binding and its absence hold for the method and conditions named. Binding seen in cells or lysates may run through a third protein. These calls come from enrichment with a bait or labelling near it, and not all partners need be listed. Where a sequence is shown, tags or fusion partners need not be part of it.
# Amino acid sequences for entries named in this document (tags omitted). Residues count along the entry.
# UniProt O43837, residues 35-385: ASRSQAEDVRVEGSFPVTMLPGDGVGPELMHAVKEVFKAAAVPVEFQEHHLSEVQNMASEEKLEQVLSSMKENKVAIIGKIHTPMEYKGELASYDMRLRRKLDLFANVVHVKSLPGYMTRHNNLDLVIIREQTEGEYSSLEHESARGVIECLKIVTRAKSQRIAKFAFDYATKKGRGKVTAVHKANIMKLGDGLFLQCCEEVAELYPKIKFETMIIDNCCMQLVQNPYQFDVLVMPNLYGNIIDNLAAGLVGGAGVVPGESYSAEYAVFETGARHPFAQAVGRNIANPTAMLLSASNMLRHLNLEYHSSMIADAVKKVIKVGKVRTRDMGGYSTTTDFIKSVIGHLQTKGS
# UniProt Q92793: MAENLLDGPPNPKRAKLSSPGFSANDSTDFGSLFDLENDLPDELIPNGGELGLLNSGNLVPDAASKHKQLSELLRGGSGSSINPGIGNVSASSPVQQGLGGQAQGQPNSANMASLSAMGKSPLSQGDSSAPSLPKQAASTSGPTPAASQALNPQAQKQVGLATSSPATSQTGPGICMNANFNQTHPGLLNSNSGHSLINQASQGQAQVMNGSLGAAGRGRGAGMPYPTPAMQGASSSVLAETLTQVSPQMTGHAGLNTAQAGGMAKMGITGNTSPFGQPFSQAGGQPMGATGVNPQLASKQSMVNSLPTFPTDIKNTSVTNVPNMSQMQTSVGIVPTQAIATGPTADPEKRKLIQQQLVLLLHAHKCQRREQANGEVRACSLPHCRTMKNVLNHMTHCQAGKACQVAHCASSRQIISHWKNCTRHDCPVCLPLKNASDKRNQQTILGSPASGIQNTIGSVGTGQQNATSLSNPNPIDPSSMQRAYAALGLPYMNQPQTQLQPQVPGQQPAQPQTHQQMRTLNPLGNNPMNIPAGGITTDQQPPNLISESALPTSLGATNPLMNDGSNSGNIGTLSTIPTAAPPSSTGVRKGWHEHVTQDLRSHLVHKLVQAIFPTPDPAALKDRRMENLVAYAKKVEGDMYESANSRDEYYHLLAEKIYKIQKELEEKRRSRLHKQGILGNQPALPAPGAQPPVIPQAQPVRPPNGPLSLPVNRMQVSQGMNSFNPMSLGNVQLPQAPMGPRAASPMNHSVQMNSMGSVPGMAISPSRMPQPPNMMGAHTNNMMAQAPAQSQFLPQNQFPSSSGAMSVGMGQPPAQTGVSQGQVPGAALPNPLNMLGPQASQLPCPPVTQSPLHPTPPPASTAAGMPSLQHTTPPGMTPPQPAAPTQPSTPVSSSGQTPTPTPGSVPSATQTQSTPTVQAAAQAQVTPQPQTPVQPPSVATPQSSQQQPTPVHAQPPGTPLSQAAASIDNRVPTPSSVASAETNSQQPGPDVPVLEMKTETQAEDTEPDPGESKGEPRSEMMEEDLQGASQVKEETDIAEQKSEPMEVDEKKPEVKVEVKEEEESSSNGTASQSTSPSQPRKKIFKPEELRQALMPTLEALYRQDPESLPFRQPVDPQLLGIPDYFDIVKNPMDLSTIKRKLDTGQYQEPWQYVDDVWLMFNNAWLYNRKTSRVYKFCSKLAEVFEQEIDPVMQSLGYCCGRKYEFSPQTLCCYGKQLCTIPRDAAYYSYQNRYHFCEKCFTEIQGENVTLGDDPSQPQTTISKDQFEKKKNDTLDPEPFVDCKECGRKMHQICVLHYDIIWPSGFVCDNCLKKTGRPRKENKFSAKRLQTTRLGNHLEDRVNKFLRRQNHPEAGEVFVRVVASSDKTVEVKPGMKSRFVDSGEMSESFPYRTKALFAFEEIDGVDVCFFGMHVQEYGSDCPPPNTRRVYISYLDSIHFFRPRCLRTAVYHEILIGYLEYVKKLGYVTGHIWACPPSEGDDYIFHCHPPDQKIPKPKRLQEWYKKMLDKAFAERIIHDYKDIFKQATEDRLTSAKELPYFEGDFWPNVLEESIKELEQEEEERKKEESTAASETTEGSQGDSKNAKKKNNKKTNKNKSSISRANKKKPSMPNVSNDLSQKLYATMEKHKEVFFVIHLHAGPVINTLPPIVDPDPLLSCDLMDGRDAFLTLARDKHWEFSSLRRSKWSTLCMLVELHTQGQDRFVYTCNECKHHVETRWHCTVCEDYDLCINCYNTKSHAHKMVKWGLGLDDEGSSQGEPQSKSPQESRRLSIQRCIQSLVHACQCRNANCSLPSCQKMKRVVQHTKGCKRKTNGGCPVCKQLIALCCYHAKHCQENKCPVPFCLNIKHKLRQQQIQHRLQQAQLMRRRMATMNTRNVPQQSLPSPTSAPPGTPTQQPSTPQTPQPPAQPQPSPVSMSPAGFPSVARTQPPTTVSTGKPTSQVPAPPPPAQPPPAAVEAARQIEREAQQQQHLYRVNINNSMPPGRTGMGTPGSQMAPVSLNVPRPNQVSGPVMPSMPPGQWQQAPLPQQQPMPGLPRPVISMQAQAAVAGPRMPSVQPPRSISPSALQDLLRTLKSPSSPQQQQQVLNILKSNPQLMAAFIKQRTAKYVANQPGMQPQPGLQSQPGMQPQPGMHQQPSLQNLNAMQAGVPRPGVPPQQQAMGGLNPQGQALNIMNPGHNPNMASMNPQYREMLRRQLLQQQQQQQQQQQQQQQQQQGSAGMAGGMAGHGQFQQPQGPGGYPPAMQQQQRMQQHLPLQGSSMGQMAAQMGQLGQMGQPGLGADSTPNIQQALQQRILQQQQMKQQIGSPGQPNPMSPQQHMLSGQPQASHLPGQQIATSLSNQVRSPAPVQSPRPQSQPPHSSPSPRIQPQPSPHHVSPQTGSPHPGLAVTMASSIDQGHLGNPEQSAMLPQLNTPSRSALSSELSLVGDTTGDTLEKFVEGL
# UniProt Q09472: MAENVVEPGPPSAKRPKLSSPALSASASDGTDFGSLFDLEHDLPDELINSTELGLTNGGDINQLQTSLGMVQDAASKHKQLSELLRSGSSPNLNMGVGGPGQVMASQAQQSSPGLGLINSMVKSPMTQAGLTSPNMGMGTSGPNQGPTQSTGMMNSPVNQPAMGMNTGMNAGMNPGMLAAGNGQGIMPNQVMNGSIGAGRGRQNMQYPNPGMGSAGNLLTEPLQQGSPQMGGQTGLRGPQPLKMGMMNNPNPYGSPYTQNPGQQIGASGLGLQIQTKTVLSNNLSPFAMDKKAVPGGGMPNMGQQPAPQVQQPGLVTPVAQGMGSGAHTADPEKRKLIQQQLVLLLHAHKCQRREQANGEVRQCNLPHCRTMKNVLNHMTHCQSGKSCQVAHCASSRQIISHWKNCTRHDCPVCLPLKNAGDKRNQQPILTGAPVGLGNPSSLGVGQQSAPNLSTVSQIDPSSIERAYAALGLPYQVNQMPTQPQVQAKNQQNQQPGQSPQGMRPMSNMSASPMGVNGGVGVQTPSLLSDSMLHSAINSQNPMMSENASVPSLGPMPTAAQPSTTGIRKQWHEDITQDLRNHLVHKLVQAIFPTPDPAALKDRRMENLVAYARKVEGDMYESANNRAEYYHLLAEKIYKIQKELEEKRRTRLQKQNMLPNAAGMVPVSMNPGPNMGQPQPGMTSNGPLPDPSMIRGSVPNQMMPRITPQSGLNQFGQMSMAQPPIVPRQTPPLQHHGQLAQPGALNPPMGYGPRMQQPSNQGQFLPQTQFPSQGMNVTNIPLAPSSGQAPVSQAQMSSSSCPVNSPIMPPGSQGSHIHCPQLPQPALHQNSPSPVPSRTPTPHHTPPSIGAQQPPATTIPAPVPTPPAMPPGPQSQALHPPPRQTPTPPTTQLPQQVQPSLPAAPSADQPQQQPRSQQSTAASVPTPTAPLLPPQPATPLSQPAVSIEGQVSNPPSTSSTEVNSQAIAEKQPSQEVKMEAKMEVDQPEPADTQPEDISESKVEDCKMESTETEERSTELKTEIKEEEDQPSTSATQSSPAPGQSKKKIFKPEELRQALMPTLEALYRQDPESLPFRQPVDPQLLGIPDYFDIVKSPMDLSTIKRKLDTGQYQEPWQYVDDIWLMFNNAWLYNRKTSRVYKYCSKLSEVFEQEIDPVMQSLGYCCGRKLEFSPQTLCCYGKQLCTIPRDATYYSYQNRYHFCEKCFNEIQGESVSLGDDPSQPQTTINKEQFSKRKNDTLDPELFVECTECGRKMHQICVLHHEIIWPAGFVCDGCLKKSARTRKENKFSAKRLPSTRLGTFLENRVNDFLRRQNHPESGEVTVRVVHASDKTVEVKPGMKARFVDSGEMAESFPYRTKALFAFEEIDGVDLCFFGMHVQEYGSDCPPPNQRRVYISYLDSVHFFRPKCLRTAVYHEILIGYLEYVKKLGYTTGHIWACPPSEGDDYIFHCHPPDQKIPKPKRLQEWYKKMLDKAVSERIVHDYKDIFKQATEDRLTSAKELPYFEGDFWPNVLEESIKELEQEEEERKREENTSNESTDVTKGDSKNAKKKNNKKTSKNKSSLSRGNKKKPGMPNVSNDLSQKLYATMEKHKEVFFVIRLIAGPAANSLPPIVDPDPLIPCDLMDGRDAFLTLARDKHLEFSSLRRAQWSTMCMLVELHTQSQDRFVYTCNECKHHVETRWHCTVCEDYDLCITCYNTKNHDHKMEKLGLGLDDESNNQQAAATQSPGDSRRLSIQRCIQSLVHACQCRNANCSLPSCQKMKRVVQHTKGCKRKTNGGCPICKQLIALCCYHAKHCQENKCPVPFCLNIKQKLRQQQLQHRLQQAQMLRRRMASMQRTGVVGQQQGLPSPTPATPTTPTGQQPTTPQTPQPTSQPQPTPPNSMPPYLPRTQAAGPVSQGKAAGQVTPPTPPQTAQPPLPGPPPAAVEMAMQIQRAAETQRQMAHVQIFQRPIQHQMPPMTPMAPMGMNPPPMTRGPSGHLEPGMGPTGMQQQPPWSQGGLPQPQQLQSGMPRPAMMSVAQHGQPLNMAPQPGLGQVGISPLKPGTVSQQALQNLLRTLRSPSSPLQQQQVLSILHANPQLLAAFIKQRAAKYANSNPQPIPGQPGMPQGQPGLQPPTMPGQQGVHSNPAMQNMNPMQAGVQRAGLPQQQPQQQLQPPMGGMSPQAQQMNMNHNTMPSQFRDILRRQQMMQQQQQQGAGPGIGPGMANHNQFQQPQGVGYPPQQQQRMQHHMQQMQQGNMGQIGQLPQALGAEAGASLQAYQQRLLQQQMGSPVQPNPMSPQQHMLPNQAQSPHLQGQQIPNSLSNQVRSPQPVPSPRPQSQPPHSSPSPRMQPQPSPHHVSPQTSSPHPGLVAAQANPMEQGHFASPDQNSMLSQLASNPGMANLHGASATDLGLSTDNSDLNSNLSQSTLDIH
# UniProt O14980: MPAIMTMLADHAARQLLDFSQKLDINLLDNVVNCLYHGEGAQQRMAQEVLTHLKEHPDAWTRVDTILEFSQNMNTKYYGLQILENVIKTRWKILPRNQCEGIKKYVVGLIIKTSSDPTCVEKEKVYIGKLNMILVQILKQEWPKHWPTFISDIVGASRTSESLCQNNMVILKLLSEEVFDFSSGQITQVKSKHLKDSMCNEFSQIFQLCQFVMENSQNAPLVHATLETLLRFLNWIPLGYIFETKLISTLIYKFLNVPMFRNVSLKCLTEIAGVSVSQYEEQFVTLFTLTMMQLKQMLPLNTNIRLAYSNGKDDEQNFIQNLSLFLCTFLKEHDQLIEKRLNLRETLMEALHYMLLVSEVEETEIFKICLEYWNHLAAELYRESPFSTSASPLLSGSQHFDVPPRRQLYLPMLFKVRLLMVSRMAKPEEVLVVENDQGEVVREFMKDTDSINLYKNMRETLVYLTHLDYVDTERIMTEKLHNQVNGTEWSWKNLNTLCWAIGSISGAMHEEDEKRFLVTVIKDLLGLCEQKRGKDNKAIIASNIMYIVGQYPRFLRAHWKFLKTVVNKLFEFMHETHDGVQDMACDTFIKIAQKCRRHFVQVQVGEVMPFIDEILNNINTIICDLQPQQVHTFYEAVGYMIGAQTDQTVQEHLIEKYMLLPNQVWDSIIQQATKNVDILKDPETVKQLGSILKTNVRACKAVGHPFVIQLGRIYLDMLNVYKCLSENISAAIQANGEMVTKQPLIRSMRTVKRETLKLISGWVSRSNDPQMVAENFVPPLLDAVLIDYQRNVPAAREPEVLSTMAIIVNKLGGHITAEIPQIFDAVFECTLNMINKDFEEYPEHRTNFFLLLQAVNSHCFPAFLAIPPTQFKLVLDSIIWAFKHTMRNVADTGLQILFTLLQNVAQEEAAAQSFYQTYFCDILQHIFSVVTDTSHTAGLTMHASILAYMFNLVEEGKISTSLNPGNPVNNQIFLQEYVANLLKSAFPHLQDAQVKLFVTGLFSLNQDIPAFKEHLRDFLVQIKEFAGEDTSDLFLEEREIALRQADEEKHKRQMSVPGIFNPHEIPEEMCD
# T1: SIRT2 (isoform 1) tagged at its C-terminus with GFP (UniProt Q8IXJ6)
# T1 sequence: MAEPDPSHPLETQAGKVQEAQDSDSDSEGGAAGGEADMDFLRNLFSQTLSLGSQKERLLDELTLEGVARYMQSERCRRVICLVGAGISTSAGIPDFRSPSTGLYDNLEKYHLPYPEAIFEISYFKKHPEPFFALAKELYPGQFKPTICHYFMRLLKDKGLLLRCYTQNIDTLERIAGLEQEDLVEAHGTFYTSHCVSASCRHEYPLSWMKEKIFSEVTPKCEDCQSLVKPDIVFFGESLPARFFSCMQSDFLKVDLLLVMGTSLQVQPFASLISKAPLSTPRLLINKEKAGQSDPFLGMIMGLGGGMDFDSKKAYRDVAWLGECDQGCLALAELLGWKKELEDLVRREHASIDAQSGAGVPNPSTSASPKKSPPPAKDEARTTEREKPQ
# Target: T1, SIRT2 (isoform 1) tagged at its C-terminus with GFP
# Assay: affinity purification with mass spectrometry; HeLa cells transfected with SIRT2-GFP or GFP alone, whole cell lysate in RIPA buffer, GFP-Trap agarose beads, elution with 200 mM glycine pH 2.5, LC-MS/MS; t-test against GFP alone (FDR 0.01, S0 2)
row,binding,Molecule
1,binds,"isocitrate dehydrogenase α subunit (enzyme, UniProt P50213 28-366) TGGVQTVTLIPGDGIGPEISAAVMKIFDAAKAPIQWEERNVTAIQGPGGKWMIPSEAKESMDKNKMGLKGPLKTPIAAGHPSMNLLLRKTFDLYANVRPCVSIEGYKTPYTDVNIVTIRENTEGEYSGIEHVIVDGVVQSIKLITEGASKRIAEFAFEYARNNHRSNVTAVHKANIMRMSDGLFLQKCREVAESCKDIKFNEMYLDTVCLNMVQDPSQFDVLVMPNLYGDILSDLCAGLIGGLGVTPSGNIGANGVAIFESVHGTAPDIAGKDMANPTALLLSAVMMLRHMGLFDHAARIEAACFATIKDGKSLTKDLGGNAKCSDFTEEICRRVKDLD"

# Target: T1, SIRT2 (isoform 1) tagged at its C-terminus with GFP
# Assay: as above
# Remark: another data set of the same source
row,binding,Molecule
1,binds,Transportin 1 (TNPO1) (from UniProt Q92973 1-898)
2,binds,α-tubulin (human (endogenous in HeLa))
3,binds,isocitrate dehydrogenase β subunit (from UniProt O43837 35-385) (enzyme)
4,binds,CREB-binding protein (CBP) (from UniProt Q92793 1-2442)
5,binds,EP300 (from UniProt Q09472 1-2414)
6,binds,Exportin-1 (from UniProt O14980 1-1071)

# Reference: PMC7010746
